The values that follow come from US20160108098A1 (GLAXOSMITHKLINE INTELLECTUAL PROPERTY DEVELOPMENT LIMITED, priority 2013, published 2016).

One purity is given for all peptides; the source may state it once.

A short description of this data set: general procedure: Fmoc solid-phase peptide synthesis; Rink Amide MBHA LL or Rink Amide AM LL (Novabiochem), 0.29-0.38 mmol/g; HBTU or HCTU with NMM. Particulars: whole synthesis; for final HPLC purity: C18 HPLC or LC/MS, scale of the general procedure 20-400 μmol, trifluoroacetic acid salt.

On to PKPEAPGKDASPEELNRYYASLRKYLNWVTRQRY-NH2, for which the “final HPLC purity” value is recorded as more than 90%. Also, the isolated mass (scale 35 μmol, 8 TFA salt) was 21 mg.
In the case of PKPEHPGKDASPEEWNRYYASLRKYLNWVTRQRY-NH2, the “final HPLC purity” value is listed as more than 90%. Moreover, the isolated mass (scale 40 μmol, 9 TFA salt) was determined as 21 mg.
